# The other results are listed elsewhere or left out.
# B1: Gs78B-bfa-542-29-542 (Bacteroides fragilis) (protein)
# chain: SEDINRNPLLPTKEDEKMDGVIYGAYLPNLEKSVIPIGTASESTEPVNRYQIGVNLAGDAWAGYMSPRDNKFNGSKNFTNYFMYENWVNYVYSFMVTDVYSPWMQIKRISQDEGTRNDEIYALAQIIKIAALHRTTDMFGPIPYSQVGKGSFKVAYDSQESVYRSFLKELEEAVQTLDDYSNKSKEVLPAFDIVYNGDVNKWMRFANSLMLRLAIRVRFADAGLAKEYAEKAVKHPAGLINSKELAAQMGKGAGLQMKNPLKVINEEYNDTRMGATIYSYLAGYNDARAAVYFVKNNGFKAVRCGIAKSGDAYNGFTRPNVHEDDPLYWMKASEVCFLKAEGALAGFDMGGSAGDFYNAGIRMSFSENGLDNSSAETYLKDSTRKPANYTDTSNGELSANAPSSITIRWENGATEEEKLERIITQKYLAIFPNGQEAWTEWRRTGYPRQIVVAENKTNSAVLIGNGYDLGGVRRLPYPRTEYEQNGENLHNAISQYLGGVDNAATKVWWDKKSK
# What was measured:
# Experiment in all cases: glycan array binding signal (z-score within array); higher = stronger binding
# Conditions in all cases: glycan notation: IUPAC condensed, linker removed
# [1] = target: Neu5Ac(a2-3)Gal(b1-3)[Fuc(a1-4)]GlcNAc
# Method in brief: (§1)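 Glycan array data came from 3228 arrays in the Consortium for Functional Glycomics database, and only arrays with an available protein sequence were kept. Glycan names were put into IUPAC-condensed notation, and columns mapping to the same glycan were averaged. The binding signal is a within-array Z-score, averaged across arrays of one protein sequence run at different concentrations or buffers and across linkers. A negative Z-score can be read as non-binding.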
# [2] = target: Neu5Ac(a2-3)Gal(b1-3)[Fuc(a1-4)]GlcNAc(b1-3)Gal(b1-3)[Fuc(a1-4)]GlcNAc
# Method in brief: as §1
# [3] = target: Neu5Ac(a2-3)Gal(b1-3)[Fuc(a1-4)]GlcNAc(b1-3)Gal(b1-4)[Fuc(a1-3)]GlcNAc
# Method in brief: as §1
# [4] = target: Neu5Ac(a2-3)Gal(b1-3)[GlcNAc(b1-6)]GalNAc
# Method in brief: as §1
# [5] = target: Neu5Ac(a2-3)Gal(b1-3)[Neu5Ac(a2-6)]GalNAc
# Method in brief: as §1
# [6] = target: Neu5Ac(a2-3)Gal(b1-3)[Neu5Ac(a2-6)]GlcNAc(b1-3)[Fuc(a1-3)[Gal(b1-4)]GlcNAc(b1-6)]Gal(b1-4)Glc
# Method in brief: as §1
# [7] = target: Neu5Ac(a2-3)Gal(b1-3)]Neu5Ac(a2-3)Gal(b1-4)]GlcNAc
# Method in brief: as §1
# Neu5Ac(a2-3)Gal(b1-4)Glc = target: Neu5Ac(a2-3)Gal(b1-4)Glc
# Method in brief: as §1
# [8] = target: Neu5Ac(a2-3)Gal(b1-4)GlcNAc
# Method in brief: as §1
# [9] = target: Neu5Ac(a2-3)Gal(b1-4)GlcNAc(b1-2)Man
# Method in brief: as §1
# [10] = target: Neu5Ac(a2-3)Gal(b1-4)GlcNAc(b1-2)Man(a1-3)[GlcNAc(b1-4)][Neu5Ac(a2-3)Gal(b1-4)GlcNAc(b1-2)Man(a1-6)]Man(b1-4)GlcNAc(b1-4)GlcNAc
# Method in brief: as §1
# [11] = target: Neu5Ac(a2-3)Gal(b1-4)GlcNAc(b1-2)Man(a1-3)[Neu5Ac(a2-3)Gal(b1-4)GlcNAc(b1-2)Man(a1-6)]Man(b1-4)GlcNAc(b1-4)GlcNAc
# Method in brief: as §1
# [12] = target: Neu5Ac(a2-3)Gal(b1-4)GlcNAc(b1-2)Man(a1-3)[Neu5Ac(a2-3)Gal(b1-4)GlcNAc(b1-2)Man(a1-6)]Man(b1-4)GlcNAc(b1-4)[Fuc(a1-6)]GlcNAc
# Method in brief: as §1
# [13] = target: Neu5Ac(a2-3)Gal(b1-4)GlcNAc(b1-2)Man(a1-3)[Neu5Ac(a2-6)Gal(b1-4)GlcNAc(b1-2)Man(a1-6)]Man(b1-4)GlcNAc(b1-4)GlcNAc
# Method in brief: as §1
# [14] = target: Neu5Ac(a2-3)Gal(b1-4)GlcNAc(b1-2)[Neu5Ac(a2-3)Gal(b1-4)GlcNAc(b1-4)]Man(a1-3)[GlcNAc(b1-4)][Neu5Ac(a2-3)Gal(b1-4)GlcNAc(b1-2)[Neu5Ac(a2-3)Gal(b1-4)GlcNAc(b1-6)]Man(a1-6)]Man(b1-4)GlcNAc(b1-4)GlcNAc
# Method in brief: as §1
# [15] = target: Neu5Ac(a2-3)Gal(b1-4)GlcNAc(b1-2)[Neu5Ac(a2-3)Gal(b1-4)GlcNAc(b1-4)]Man(a1-3)[GlcNAc(b1-4)][Neu5Ac(a2-3)Gal(b1-4)GlcNAc(b1-4)Man(a1-6)]Man(b1-4)GlcNAc(b1-4)GlcNAc
# Method in brief: as §1
# [16] = target: Neu5Ac(a2-3)Gal(b1-4)GlcNAc(b1-2)[Neu5Ac(a2-3)Gal(b1-4)GlcNAc(b1-6)]Man(a1-6)[Neu5Ac(a2-3)Gal(b1-4)GlcNAc(b1-2)Man(a1-3)]Man(b1-4)GlcNAc(b1-4)GlcNAc
# Method in brief: as §1
# [17] = target: Neu5Ac(a2-3)Gal(b1-4)GlcNAc(b1-2)[Neu5Ac(a2-3)Gal(b1-4)GlcNAc(b1-6)]Man(a1-6)[Neu5Ac(a2-3)Gal(b1-4)GlcNAc(b1-2)Man(a1-3)][GlcNAc(b1-4)]Man(b1-4)GlcNAc(b1-4)GlcNAc
# Method in brief: as §1
# [18] = target: Neu5Ac(a2-3)Gal(b1-4)GlcNAc(b1-3)Gal
# Method in brief: as §1
# [19] = target: Neu5Ac(a2-3)Gal(b1-4)GlcNAc(b1-3)Gal(b1-3)GlcNAc
# Method in brief: as §1
# [20] = target: Neu5Ac(a2-3)Gal(b1-4)GlcNAc(b1-3)Gal(b1-4)GlcNAc
# Method in brief: as §1
# [21] = target: Neu5Ac(a2-3)Gal(b1-4)GlcNAc(b1-3)Gal(b1-4)GlcNAc(b1-2)Man(a1-3)[Neu5Ac(a2-3)Gal(b1-4)GlcNAc(b1-3)Gal(b1-4)GlcNAc(b1-2)Man(a1-6)]Man(b1-4)GlcNAc(b1-4)GlcNAc
# Method in brief: as §1
# [22] = target: Neu5Ac(a2-3)Gal(b1-4)GlcNAc(b1-3)Gal(b1-4)GlcNAc(b1-3)Gal(b1-4)GlcNAc
# Method in brief: as §1
# [23] = target: Neu5Ac(a2-3)Gal(b1-4)GlcNAc(b1-3)Gal(b1-4)GlcNAc(b1-3)Gal(b1-4)GlcNAc(b1-2)Man(a1-3)[Neu5Ac(a2-3)Gal(b1-4)GlcNAc(b1-3)Gal(b1-4)GlcNAc(b1-3)Gal(b1-4)GlcNAc(b1-2)Man(a1-6)]GalNAc
# Method in brief: as §1
# [24] = target: Neu5Ac(a2-3)Gal(b1-4)GlcNAc(b1-3)Gal(b1-4)GlcNAc(b1-3)GalNAc
# Method in brief: as §1
# [25] = target: Neu5Ac(a2-3)Gal(b1-4)GlcNAc(b1-3)Gal(b1-4)GlcNAc(b1-3)[Neu5Ac(a2-3)Gal(b1-4)GlcNAc(b1-3)Gal(b1-4)GlcNAc(b1-6)]GalNAc
# Method in brief: as §1
# [26] = target: Neu5Ac(a2-3)Gal(b1-4)GlcNAc(b1-3)Gal(b1-4)GlcNAc(b1-6)[Gal(b1-3)]GalNAc
# Method in brief: as §1
# [27] = target: Neu5Ac(a2-3)Gal(b1-4)GlcNAc(b1-3)Gal(b1-4)[Fuc(a1-3)]GlcNAc
# Method in brief: as §1
# [28] = target: Neu5Ac(a2-3)Gal(b1-4)GlcNAc(b1-3)GalNAc
# Method in brief: as §1
# [29] = target: Neu5Ac(a2-3)Gal(b1-4)GlcNAc(b1-3)[Neu5Ac(a2-3)Gal(b1-4)GlcNAc(b1-6)]GalNAc
# Method in brief: as §1
# [30] = target: Neu5Ac(a2-3)Gal(b1-4)GlcNAc(b1-6)GalNAc
# Method in brief: as §1
# [31] = target: Neu5Ac(a2-3)Gal(b1-4)GlcNAc(b1-6)[Gal(b1-3)]GalNAc
# Method in brief: as §1
# [32] = target: Neu5Ac(a2-3)Gal(b1-4)GlcNAc(b1-6)[Neu5Ac(a2-3)Gal(b1-3)]GalNAc
# Method in brief: as §1
# [33] = target: Neu5Ac(a2-3)Gal(b1-4)GlcNAc6S
# Method in brief: as §1
# [34] = target: Neu5Ac(a2-3)Gal(b1-4)[Fuc(a1-3)]GlcNAc
# Method in brief: as §1
# [35] = target: Neu5Ac(a2-3)Gal(b1-4)[Fuc(a1-3)]GlcNAc(b1-2)Man
# Method in brief: as §1
# [36] = target: Neu5Ac(a2-3)Gal(b1-4)[Fuc(a1-3)]GlcNAc(b1-3)Gal
# Method in brief: as §1
# [37] = target: Neu5Ac(a2-3)Gal(b1-4)[Fuc(a1-3)]GlcNAc(b1-3)Gal(b1-4)GlcNAc
# Method in brief: as §1
# [38] = target: Neu5Ac(a2-3)Gal(b1-4)[Fuc(a1-3)]GlcNAc(b1-3)Gal(b1-4)[Fuc(a1-3)]GlcNAc(b1-3)Gal(b1-4)[Fuc(a1-3)]GlcNAc
# Method in brief: as §1
# [39] = target: Neu5Ac(a2-3)Gal(b1-4)[Fuc(a1-3)]GlcNAc(b1-3)GalNAc
# Method in brief: as §1
# [40] = target: Neu5Ac(a2-3)Gal(b1-4)[Fuc(a1-3)]GlcNAc(b1-6)[Gal(b1-3)]GalNAc
# Method in brief: as §1
# [41] = target: Neu5Ac(a2-3)Gal(b1-4)[Fuc(a1-3)]GlcNAc(b1-6)[Neu5Ac(a2-3)Gal(b1-3)]GalNAc
# Method in brief: as §1
# [42] = target: Neu5Ac(a2-3)Gal(b1-4)[Fuc(a1-3)]GlcNAc6S
# Method in brief: as §1
# [43] = target: Neu5Ac(a2-3)Gal6S(b1-4)GlcNAc
# Method in brief: as §1
# [44] = target: Neu5Ac(a2-3)Gal6S(b1-4)[Fuc(a1-3)]GlcNAc
# Method in brief: as §1
binder,measurement,setting,value
B1,glycan array binding signal (z-score),[1],-0.793
same,glycan array binding signal (z-score),[2],-0.5
same,glycan array binding signal (z-score),[3],-0.537
same,glycan array binding signal (z-score),[4],-0.829
same,glycan array binding signal (z-score),[5],-0.769
same,glycan array binding signal (z-score),[6],-0.712
same,glycan array binding signal (z-score),[7],-0.814
same,glycan array binding signal (z-score),Neu5Ac(a2-3)Gal(b1-4)Glc,-0.505
same,glycan array binding signal (z-score),[8],-0.81
same,glycan array binding signal (z-score),[9],2.92
same,glycan array binding signal (z-score),[10],-0.78
same,glycan array binding signal (z-score),[11],-0.787
same,glycan array binding signal (z-score),[12],-0.844
same,glycan array binding signal (z-score),[13],0.41
same,glycan array binding signal (z-score),[14],-0.849
same,glycan array binding signal (z-score),[15],-0.823
same,glycan array binding signal (z-score),[16],0.079
same,glycan array binding signal (z-score),[17],-0.835
same,glycan array binding signal (z-score),[18],-0.843
same,glycan array binding signal (z-score),[19],-0.822
same,glycan array binding signal (z-score),[20],-0.212
same,glycan array binding signal (z-score),[21],1.91
same,glycan array binding signal (z-score),[22],-0.832
same,glycan array binding signal (z-score),[23],0.43
same,glycan array binding signal (z-score),[24],-0.255
same,glycan array binding signal (z-score),[25],0.912
same,glycan array binding signal (z-score),[26],1.75
same,glycan array binding signal (z-score),[27],-0.504
same,glycan array binding signal (z-score),[28],-0.546
same,glycan array binding signal (z-score),[29],-0.818
same,glycan array binding signal (z-score),[30],0.453
same,glycan array binding signal (z-score),[31],-0.422
same,glycan array binding signal (z-score),[32],-0.843
same,glycan array binding signal (z-score),[33],-0.24
same,glycan array binding signal (z-score),[34],-0.84
same,glycan array binding signal (z-score),[35],-0.854
same,glycan array binding signal (z-score),[36],-0.807
same,glycan array binding signal (z-score),[37],0.919
same,glycan array binding signal (z-score),[38],-0.781
same,glycan array binding signal (z-score),[39],0.763
same,glycan array binding signal (z-score),[40],-0.266
same,glycan array binding signal (z-score),[41],5.64
same,glycan array binding signal (z-score),[42],-0.804
same,glycan array binding signal (z-score),[43],-0.513
same,glycan array binding signal (z-score),[44],-0.849

# 4 entries from above, with tabs.
binder	measurement	setting	value
B1	glycan array binding signal (z-score)	[22]	-0.832
same	glycan array binding signal (z-score)	[24]	-0.255
same	glycan array binding signal (z-score)	[28]	-0.546
same	glycan array binding signal (z-score)	[32]	-0.843

# — the supplement of paper PMC8728848
